According to publication doi:10.1101/325563:
Results are given in words; binding and its absence hold for the method and conditions named. In cells and extracts the contact can be indirect. Some binding calls cover weakened binding; strength is not graded here.

Sequences of proteins named here, by UniProt entry; tags and fusion partners are left off.
UniProt P33993: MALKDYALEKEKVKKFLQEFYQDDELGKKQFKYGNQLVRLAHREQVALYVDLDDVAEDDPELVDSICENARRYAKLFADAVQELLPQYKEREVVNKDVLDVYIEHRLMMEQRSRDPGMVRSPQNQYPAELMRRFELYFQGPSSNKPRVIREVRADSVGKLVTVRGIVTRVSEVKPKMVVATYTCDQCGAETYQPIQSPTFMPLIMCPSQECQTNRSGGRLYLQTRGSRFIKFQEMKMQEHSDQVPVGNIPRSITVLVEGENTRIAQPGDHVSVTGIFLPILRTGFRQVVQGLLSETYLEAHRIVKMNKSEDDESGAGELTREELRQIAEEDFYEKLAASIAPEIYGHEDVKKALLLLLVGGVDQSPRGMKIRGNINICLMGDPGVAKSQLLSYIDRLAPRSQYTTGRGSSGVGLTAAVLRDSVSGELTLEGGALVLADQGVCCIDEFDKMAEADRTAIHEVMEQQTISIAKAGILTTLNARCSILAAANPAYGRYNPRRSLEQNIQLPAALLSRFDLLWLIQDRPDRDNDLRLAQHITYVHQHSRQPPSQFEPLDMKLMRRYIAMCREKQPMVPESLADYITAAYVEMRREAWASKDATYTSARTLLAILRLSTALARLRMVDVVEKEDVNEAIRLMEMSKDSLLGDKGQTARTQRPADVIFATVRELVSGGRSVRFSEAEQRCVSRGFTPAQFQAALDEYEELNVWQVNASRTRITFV

Legend:
[1] = target: Minichromosome Maintenance Complex Component 7 (MCM7) (human (endogenous in FT282, OVCAR3 and FUOV1)) (UniProt P33993); assay: proximity ligation
[2] = target: Minichromosome Maintenance Complex Component 7 (MCM7) (human (endogenous in FT282, OVCAR3 and FUOV1)) (UniProt P33993); assay: co-IP

- binding [1]: binds
- binding [2]: binds
B1: XRCC2 (protein, UniProt O43543 1-280)
chain: MCSAFHRAESGTELLARLEGRSSLKEIEPNLFADEDSPVHGDILEFHGPEGTGKTEMLYHLTARCILPKSEGGLEVEVLFIDTDYHFDMLRLVTILEHRLSQSSEEIIKYCLGRFFLVYCSSSTHLLLTLYSLESMFCSHPSLCLLILDSLSAFYWIDRVNGGESVNLQESTLRKCSQCLEKLVNDYRLVLFATTQTIMQKASSSSEEPSHASRRLCDVDIDYRPYLCKAWQQLVKHRMFFSKQDDSQSSNQFSLVSRCLKSNSLKKHFFIIGESGVEFC
